From the supplement of paper PMC12823440, “Inhibitors supercharge kinase turnover through native proteolytic circuits” (Nature, 2025)
Some of the results follow. Hit calls seldom repeat between salt and free forms of one compound.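 In K562 cells expressing nanoluciferase-fused kinases, luminescence was recorded at 4 h intervals between 2 and 18 h, normalized as percent of control with DMSO at 100% and a positive control at 0%. A significant (2 sigma) signal drop marks a time point as decreased. The authors' rule for a hit is not shown and takes in more than the number of time points.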

By UniProt entry, the sequences of proteins in these tests, tags left out. Where a name states a change or a piece, a line headed by the entry shows the natural chain unless it says otherwise.
UniProt P10398: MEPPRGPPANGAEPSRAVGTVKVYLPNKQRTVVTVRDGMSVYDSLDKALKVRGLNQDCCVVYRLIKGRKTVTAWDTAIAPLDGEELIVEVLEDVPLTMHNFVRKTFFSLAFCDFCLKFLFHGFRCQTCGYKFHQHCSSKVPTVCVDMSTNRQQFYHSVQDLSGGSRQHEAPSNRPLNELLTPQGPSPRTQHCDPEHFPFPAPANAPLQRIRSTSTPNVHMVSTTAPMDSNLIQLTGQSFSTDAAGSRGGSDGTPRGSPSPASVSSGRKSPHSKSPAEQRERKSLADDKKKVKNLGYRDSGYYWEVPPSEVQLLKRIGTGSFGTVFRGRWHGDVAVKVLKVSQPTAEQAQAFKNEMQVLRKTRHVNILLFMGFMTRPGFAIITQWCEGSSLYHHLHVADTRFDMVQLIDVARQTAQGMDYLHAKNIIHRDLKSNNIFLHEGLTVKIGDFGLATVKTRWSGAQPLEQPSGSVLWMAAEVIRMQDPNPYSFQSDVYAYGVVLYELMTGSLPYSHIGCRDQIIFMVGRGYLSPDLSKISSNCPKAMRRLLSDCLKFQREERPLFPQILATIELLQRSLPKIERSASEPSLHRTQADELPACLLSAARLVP
UniProt Q9UQB9: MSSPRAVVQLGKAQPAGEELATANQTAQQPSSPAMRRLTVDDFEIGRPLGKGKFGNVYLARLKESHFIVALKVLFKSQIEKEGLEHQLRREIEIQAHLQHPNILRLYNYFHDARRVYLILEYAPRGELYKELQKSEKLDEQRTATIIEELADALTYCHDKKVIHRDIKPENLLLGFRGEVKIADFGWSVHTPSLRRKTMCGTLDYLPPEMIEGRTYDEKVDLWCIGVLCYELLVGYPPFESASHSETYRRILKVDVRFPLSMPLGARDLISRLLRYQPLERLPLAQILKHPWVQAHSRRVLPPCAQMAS
UniProt P51451: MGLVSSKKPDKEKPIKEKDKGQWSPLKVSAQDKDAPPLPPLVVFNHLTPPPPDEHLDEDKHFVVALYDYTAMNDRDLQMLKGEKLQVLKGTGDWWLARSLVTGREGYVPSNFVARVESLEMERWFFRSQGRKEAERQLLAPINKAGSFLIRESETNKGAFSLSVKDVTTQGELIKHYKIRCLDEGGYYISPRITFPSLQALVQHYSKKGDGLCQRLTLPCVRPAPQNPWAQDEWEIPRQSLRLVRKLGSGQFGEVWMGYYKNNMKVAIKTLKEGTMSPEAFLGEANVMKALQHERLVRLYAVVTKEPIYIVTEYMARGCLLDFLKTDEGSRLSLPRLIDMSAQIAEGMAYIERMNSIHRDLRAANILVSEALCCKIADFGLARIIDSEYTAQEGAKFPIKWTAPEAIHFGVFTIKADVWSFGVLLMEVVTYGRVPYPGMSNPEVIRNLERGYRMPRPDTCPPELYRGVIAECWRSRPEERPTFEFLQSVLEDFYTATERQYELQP
UniProt P51813: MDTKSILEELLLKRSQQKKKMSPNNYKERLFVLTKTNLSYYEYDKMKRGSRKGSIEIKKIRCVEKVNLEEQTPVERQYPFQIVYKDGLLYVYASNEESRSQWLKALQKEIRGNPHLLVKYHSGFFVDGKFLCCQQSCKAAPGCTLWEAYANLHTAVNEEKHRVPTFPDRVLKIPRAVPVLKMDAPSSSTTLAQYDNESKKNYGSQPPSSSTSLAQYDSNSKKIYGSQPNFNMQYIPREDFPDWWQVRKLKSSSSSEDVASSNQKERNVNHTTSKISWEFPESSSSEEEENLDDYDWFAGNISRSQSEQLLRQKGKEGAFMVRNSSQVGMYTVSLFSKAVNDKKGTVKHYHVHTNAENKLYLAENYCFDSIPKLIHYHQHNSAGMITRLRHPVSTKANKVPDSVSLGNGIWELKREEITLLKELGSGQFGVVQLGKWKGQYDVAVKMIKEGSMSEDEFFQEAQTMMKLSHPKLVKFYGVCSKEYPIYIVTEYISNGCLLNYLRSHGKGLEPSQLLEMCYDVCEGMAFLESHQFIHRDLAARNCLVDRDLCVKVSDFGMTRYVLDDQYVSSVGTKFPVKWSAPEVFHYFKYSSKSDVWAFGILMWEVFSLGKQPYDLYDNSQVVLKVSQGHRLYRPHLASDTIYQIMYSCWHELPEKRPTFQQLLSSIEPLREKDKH
UniProt P15056, whole entry, looked up: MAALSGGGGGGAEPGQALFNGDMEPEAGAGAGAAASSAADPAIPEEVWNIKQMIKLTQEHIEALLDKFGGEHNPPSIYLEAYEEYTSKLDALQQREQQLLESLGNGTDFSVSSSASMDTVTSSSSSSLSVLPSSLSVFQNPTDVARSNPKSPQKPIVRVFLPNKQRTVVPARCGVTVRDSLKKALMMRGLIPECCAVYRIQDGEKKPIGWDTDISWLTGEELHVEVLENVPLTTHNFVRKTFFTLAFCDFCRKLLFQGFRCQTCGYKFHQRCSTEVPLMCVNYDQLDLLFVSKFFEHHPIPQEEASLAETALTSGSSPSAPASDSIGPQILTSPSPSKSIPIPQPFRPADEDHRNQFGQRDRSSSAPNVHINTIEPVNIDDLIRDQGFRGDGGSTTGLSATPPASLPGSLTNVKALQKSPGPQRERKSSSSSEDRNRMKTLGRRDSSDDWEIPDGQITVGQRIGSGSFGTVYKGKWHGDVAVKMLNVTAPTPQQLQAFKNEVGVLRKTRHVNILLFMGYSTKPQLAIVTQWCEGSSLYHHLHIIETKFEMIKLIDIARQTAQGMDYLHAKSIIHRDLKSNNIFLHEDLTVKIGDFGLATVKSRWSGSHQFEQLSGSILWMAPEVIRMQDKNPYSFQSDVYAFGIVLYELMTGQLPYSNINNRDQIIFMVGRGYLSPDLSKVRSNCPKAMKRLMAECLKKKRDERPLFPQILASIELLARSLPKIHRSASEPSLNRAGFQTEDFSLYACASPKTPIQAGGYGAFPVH
UniProt Q06187: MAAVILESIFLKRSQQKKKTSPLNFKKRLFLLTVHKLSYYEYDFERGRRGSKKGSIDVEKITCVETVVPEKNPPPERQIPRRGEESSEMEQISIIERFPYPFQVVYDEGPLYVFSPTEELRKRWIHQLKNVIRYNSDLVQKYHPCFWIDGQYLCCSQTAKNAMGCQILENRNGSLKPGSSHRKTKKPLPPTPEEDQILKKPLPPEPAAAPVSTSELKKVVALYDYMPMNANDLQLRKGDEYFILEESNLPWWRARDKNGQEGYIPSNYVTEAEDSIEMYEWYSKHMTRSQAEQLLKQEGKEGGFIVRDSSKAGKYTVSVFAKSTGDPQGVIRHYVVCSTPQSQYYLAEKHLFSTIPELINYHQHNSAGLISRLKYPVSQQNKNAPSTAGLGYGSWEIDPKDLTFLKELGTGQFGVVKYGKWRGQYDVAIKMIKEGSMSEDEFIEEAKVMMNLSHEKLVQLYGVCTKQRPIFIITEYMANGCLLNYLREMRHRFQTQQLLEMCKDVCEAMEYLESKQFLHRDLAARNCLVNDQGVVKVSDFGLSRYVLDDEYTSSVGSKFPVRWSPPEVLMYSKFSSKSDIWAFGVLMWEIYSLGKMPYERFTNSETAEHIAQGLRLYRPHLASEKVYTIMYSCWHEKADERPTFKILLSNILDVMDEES
UniProt Q9UQM7, whole entry: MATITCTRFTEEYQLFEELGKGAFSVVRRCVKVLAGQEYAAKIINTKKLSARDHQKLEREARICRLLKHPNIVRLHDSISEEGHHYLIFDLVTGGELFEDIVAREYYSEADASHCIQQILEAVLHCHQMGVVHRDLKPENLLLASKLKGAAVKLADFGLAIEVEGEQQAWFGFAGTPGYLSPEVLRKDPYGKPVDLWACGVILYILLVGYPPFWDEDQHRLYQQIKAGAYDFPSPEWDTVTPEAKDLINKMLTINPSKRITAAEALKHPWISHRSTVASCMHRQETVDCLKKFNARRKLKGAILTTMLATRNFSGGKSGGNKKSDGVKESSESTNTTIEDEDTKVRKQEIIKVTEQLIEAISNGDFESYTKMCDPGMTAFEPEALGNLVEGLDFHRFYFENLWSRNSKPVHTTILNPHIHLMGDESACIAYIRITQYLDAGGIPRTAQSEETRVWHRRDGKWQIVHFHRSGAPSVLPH
UniProt Q13555: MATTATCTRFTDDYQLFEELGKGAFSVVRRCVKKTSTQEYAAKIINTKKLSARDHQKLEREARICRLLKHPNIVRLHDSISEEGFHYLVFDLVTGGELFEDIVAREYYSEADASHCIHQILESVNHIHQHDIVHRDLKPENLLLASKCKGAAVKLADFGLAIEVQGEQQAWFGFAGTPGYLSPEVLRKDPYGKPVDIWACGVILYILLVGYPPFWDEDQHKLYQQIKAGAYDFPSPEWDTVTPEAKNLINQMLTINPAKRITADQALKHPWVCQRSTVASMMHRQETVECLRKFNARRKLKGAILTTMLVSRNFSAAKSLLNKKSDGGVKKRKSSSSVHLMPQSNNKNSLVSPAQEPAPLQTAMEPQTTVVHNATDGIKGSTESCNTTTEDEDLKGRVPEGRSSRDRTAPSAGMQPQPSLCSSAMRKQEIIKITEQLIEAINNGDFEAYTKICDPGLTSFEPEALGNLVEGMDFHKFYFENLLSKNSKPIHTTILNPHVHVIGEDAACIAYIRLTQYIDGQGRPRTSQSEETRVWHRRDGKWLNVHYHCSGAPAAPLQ
UniProt Q00526: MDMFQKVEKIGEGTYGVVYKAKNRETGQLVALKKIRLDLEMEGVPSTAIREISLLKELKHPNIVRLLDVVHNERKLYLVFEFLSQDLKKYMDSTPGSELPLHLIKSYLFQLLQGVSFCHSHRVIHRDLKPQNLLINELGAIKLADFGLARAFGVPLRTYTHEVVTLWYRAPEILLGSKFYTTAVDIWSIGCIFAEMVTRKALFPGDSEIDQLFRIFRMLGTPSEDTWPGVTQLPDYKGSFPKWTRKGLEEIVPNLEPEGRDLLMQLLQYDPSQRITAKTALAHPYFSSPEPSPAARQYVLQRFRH
UniProt P11802: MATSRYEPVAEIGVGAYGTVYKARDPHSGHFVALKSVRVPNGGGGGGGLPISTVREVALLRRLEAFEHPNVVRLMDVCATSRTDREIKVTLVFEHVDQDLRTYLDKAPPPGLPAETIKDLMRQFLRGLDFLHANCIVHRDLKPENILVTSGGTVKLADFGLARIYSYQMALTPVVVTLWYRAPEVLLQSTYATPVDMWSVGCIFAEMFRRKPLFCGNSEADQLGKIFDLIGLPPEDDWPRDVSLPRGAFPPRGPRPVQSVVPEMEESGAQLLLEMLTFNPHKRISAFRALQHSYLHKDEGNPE
UniProt Q00535, whole entry, looked up: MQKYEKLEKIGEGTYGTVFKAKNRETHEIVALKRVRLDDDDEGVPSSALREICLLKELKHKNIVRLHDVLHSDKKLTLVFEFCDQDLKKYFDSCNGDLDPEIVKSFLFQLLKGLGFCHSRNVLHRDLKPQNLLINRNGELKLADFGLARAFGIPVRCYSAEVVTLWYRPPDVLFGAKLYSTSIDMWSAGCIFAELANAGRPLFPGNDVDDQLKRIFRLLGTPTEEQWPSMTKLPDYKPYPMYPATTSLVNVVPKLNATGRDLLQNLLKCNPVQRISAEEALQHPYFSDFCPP
UniProt Q00534, whole entry: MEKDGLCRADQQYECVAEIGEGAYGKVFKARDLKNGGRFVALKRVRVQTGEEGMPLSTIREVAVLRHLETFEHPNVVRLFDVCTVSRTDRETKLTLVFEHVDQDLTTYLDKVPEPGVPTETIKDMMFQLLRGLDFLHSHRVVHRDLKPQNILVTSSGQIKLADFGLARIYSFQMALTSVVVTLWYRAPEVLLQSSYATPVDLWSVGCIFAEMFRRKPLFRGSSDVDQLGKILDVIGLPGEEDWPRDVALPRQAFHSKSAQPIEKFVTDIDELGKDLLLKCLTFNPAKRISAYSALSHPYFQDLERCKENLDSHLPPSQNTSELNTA
UniProt P31749: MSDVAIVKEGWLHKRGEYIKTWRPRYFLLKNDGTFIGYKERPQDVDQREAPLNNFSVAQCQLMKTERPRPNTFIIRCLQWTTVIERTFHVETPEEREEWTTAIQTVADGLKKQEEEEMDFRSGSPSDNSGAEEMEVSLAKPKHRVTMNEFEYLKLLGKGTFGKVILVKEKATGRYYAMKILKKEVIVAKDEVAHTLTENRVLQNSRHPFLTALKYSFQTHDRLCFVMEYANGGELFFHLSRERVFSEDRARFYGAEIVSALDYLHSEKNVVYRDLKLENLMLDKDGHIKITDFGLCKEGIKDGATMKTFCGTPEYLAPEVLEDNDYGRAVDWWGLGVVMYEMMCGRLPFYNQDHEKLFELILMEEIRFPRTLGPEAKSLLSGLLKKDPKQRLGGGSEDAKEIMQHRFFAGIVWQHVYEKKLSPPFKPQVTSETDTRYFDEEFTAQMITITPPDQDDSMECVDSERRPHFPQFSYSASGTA

Key:
Assay in all cases: kinase-Nluc reporter destabilization hit call (1 = scored as downregulated) (binary); higher = compound decreases kinase abundance
Settings in all cases: K562, 2-18 h
ABL1 = ABL1 (UniProt P00519)
ALK = ALK (UniProt Q9UM73)
ARAF = ARAF (UniProt P10398)
AURKB = AURKB (UniProt Q96GD4)
AURKC = AURKC (UniProt Q9UQB9)
BLK = BLK (UniProt P51451)
BMX = BMX (UniProt P51813)
BRAF = BRAF (UniProt P15056)
BRAF_V600E = system: BRAF_V600E
BTK = BTK (UniProt Q06187)
CAMK2A = CAMK2A (UniProt Q9UQM7)
CAMK2G = CAMK2G (UniProt Q13555)
CDK10 = CDK10 (UniProt Q15131)
CDK2 = CDK2 (UniProt P24941)
CDK3 = CDK3 (UniProt Q00526)
CDK4 = CDK4 (UniProt P11802)
CDK5 = CDK5 (UniProt Q00535)
CDK6 = CDK6 (UniProt Q00534)
AKT1 = AKT1 (UniProt P31749)
AURKA = AURKA (UniProt O14965)

Measured: kinase-Nluc reporter destabilization hit call

CCCCCC1CC1CC1CC1CCCCCCCC(=O)OC (stereo unspecified)
inactive: ABL1; 10 µM 0 | ALK; 10 µM 0 | ARAF; 10 µM 0 | AURKB; 10 µM 0 | AURKC; 10 µM 0 | BLK; 10 µM 0 | BMX; 10 µM 0 | BRAF; 10 µM 0 | BRAF_V600E; 10 µM 0 | BTK; 10 µM 0 | CAMK2A; 10 µM 0 | CAMK2G; 10 µM 0 | CDK10; 10 µM 0 | CDK2; 10 µM 0 | CDK3; 10 µM 0 | CDK4; 10 µM 0 | CDK5; 10 µM 0 | CDK6; 10 µM 0

CC1(C)C(=O)N([C@H]2CCc3c(O)cccc32)c2nc(Nc3cccc(CN4CCCC4)c3)ncc21
inactive: AKT1; 2.5 µM 0 | ALK; 2.5 µM 0 | ARAF; 2.5 µM 0 | AURKA; 2.5 µM 0 | AURKB; 2.5 µM 0 | AURKC; 2.5 µM 0 | BLK; 2.5 µM 0 | BMX; 2.5 µM 0 | BRAF; 2.5 µM 0 | BRAF_V600E; 2.5 µM 0 | BTK; 2.5 µM 0 | CAMK2A; 2.5 µM 0 | CAMK2G; 2.5 µM 0 | CDK10; 2.5 µM 0 | CDK2; 2.5 µM 0 | CDK3; 2.5 µM 0 | CDK4; 2.5 µM 0 | CDK5; 2.5 µM 0 | CDK6; 2.5 µM 0

Nc1ncnc2c1c(-c1cnc3[nH]ccc3c1)nn2C1CCCC1
inactive: AKT1; 2.5 µM 0 | ALK; 2.5 µM 0 | ARAF; 2.5 µM 0 | AURKA; 2.5 µM 0 | AURKB; 2.5 µM 0 | AURKC; 2.5 µM 0 | BLK; 2.5 µM 0 | BMX; 2.5 µM 0 | BRAF; 2.5 µM 0 | BRAF_V600E; 2.5 µM 0 | CAMK2A; 2.5 µM 0 | CAMK2G; 2.5 µM 0 | CDK10; 2.5 µM 0 | CDK2; 2.5 µM 0 | CDK3; 2.5 µM 0 | CDK4; 2.5 µM 0 | CDK5; 2.5 µM 0 | CDK6; 2.5 µM 0

C[C@H]1Oc2cc(cnc2N)-c2c(nn(C)c2C#N)CN(C)C(=O)c2ccc(F)cc21 [Lorlatinib]
inactive: ABL1; 10 µM 0 | AKT1; 10 µM 0 | ARAF; 10 µM 0 | AURKA; 10 µM 0 | AURKB; 10 µM 0 | AURKC; 10 µM 0 | BLK; 10 µM 0 | BMX; 10 µM 0 | BRAF; 10 µM 0 | BRAF_V600E; 10 µM 0 | BTK; 10 µM 0 | CAMK2A; 10 µM 0 | CAMK2G; 10 µM 0 | CDK10; 10 µM 0 | CDK2; 10 µM 0 | CDK3; 10 µM 0 | CDK4; 10 µM 0 | CDK5; 10 µM 0 | CDK6; 10 µM 0

CN1CCN(c2ccc3nc(-c4c(N)c5c(F)cccc5[nH]c4=O)[nH]c3c2)CC1 [Dovitinib (lactate)]
inactive: AKT1; 2.5 µM 0 | ALK; 2.5 µM 0 | ARAF; 2.5 µM 0 | AURKA; 2.5 µM 0 | AURKB; 2.5 µM 0 | AURKC; 2.5 µM 0 | BLK; 2.5 µM 0 | BMX; 2.5 µM 0 | BRAF; 2.5 µM 0 | BRAF_V600E; 2.5 µM 0 | BTK; 2.5 µM 0 | CAMK2A; 2.5 µM 0 | CAMK2G; 2.5 µM 0 | CDK10; 2.5 µM 0 | CDK2; 2.5 µM 0 | CDK3; 2.5 µM 0 | CDK4; 2.5 µM 0 | CDK6; 2.5 µM 0

COc1cc(N2CCC(N3CCN(C)CC3)CC2)ccc1Nc1ncc(Cl)c(Nc2ccccc2S(=O)(=O)C(C)C)n1
inactive: ABL1; 2.5 µM 0 | AKT1; 2.5 µM 0 | ARAF; 2.5 µM 0 | AURKA; 2.5 µM 0 | AURKB; 2.5 µM 0 | AURKC; 2.5 µM 0 | BLK; 2.5 µM 0 | BRAF; 2.5 µM 0 | BRAF_V600E; 2.5 µM 0 | BTK; 2.5 µM 0 | CAMK2A; 2.5 µM 0 | CAMK2G; 2.5 µM 0 | CDK10; 2.5 µM 0 | CDK2; 2.5 µM 0 | CDK3; 2.5 µM 0 | CDK4; 2.5 µM 0 | CDK5; 2.5 µM 0 | CDK6; 2.5 µM 0

Fetched one by one from above, two records:
CC1(C)C(=O)N([C@H]2CCc3c(O)cccc32)c2nc(Nc3cccc(CN4CCCC4)c3)ncc21
inactive: AKT1; 2.5 µM 0 | ALK; 2.5 µM 0 | ARAF; 2.5 µM 0 | AURKA; 2.5 µM 0 | AURKB; 2.5 µM 0 | AURKC; 2.5 µM 0 | BLK; 2.5 µM 0 | BMX; 2.5 µM 0 | BRAF; 2.5 µM 0 | BRAF_V600E; 2.5 µM 0 | BTK; 2.5 µM 0 | CAMK2A; 2.5 µM 0 | CAMK2G; 2.5 µM 0 | CDK10; 2.5 µM 0 | CDK2; 2.5 µM 0 | CDK3; 2.5 µM 0 | CDK4; 2.5 µM 0 | CDK5; 2.5 µM 0 | CDK6; 2.5 µM 0

C[C@H]1Oc2cc(cnc2N)-c2c(nn(C)c2C#N)CN(C)C(=O)c2ccc(F)cc21 [Lorlatinib]
inactive: ABL1; 10 µM 0 | AKT1; 10 µM 0 | ARAF; 10 µM 0 | AURKA; 10 µM 0 | AURKB; 10 µM 0 | AURKC; 10 µM 0 | BLK; 10 µM 0 | BMX; 10 µM 0 | BRAF; 10 µM 0 | BRAF_V600E; 10 µM 0 | BTK; 10 µM 0 | CAMK2A; 10 µM 0 | CAMK2G; 10 µM 0 | CDK10; 10 µM 0 | CDK2; 10 µM 0 | CDK3; 10 µM 0 | CDK4; 10 µM 0 | CDK5; 10 µM 0 | CDK6; 10 µM 0

Remaining list, next part:

COc1ccc(-c2cc(C(=O)NN=C(C)c3ccc(OC)c(OC)c3)[nH]n2)cc1
inactive: ABL1; 10 µM 0 | AKT1; 10 µM 0 | ALK; 10 µM 0 | AURKA; 10 µM 0 | AURKB; 10 µM 0 | AURKC; 10 µM 0 | BLK; 10 µM 0 | BMX; 10 µM 0 | BRAF; 10 µM 0 | BRAF_V600E; 10 µM 0 | BTK; 10 µM 0 | CAMK2A; 10 µM 0 | CAMK2G; 10 µM 0 | CDK10; 10 µM 0 | CDK2; 10 µM 0 | CDK3; 10 µM 0 | CDK4; 10 µM 0 | CDK5; 10 µM 0 | CDK6; 10 µM 0

COc1cc2ncnc(Nc3cccc(Br)c3)c2cc1OC
inactive: AKT1; 10 µM 0 | ALK; 10 µM 0 | ARAF; 10 µM 0 | AURKA; 10 µM 0 | AURKB; 10 µM 0 | AURKC; 10 µM 0 | BLK; 10 µM 0 | BMX; 10 µM 0 | BRAF; 10 µM 0 | BRAF_V600E; 10 µM 0 | BTK; 10 µM 0 | CAMK2A; 10 µM 0 | CAMK2G; 10 µM 0 | CDK10; 10 µM 0 | CDK2; 10 µM 0 | CDK3; 10 µM 0 | CDK4; 10 µM 0 | CDK5; 10 µM 0 | CDK6; 10 µM 0

CN1CCN(c2ccc3nc(-c4c(N)c5c(F)cccc5[nH]c4=O)[nH]c3c2)CC1 [Dovitinib]
inactive: AKT1; 2.5 µM 0 | ALK; 2.5 µM 0 | ARAF; 2.5 µM 0 | AURKA; 2.5 µM 0 | AURKB; 2.5 µM 0 | AURKC; 2.5 µM 0 | BLK; 2.5 µM 0 | BMX; 2.5 µM 0 | BRAF; 2.5 µM 0 | BRAF_V600E; 2.5 µM 0 | BTK; 2.5 µM 0 | CAMK2A; 2.5 µM 0 | CAMK2G; 2.5 µM 0 | CDK10; 2.5 µM 0 | CDK2; 2.5 µM 0 | CDK3; 2.5 µM 0 | CDK4; 2.5 µM 0 | CDK6; 2.5 µM 0
